According to PubChem BioAssay AID588499 (NMMLSC, 2011):
Hit rate of the full screen: of about 360,000 compounds, about 610 (0.17%) were called active. This list was built around the results that the source calls inconclusive (neither active nor inactive); the mix of calls is not that of the screen. Rule as the data show it: active = inhibition above about 30%; inconclusive = no clear call, values can overlap the other calls; inactive = below that.

Test system: Botulinum neurotoxin type A light chain protease (Clostridium botulinum A str. ATCC 3502)
Test: blockers of BoNT/A LC substrate cleavage – biochemical, flow cytometry, MLPCN library, primary screen (AID 588499); also: plate controls were buffer without enzyme for full effect and enzyme alone for no effect
Settings: multiplex microsphere protease substrate cleavage, at 10 µM, active compounds read high

SMILES	inhibition
C=CCc1cc(OC)ccc1OCC(O)CN1CCN(c2ccc(OC)cc2)CC1 (stereo unspecified)	inconclusive: -9.4%
CCCCCCNc1nc(Cl)nc(NC(C)(C)CO)n1	inconclusive: -24.2%
COc1cccc(/C=C2\SC(=O)N(CCC(=O)N3CCCCC3CCO)C2=O)c1 (stereo unspecified)	inactive: -1.3%
COc1ccc(N(C)S(=O)(=O)c2c(C)[nH]c(=O)[nH]c2=O)cc1	inactive: 0.2%
Cn1ncc2c1NC(c1ccc(F)cc1)SCC2=O (stereo unspecified)	inactive: 0.1%
CC1=C(C)[N+](=O)C2CCCCC2N1[O-] (stereo unspecified)	inconclusive: -3.6%
COc1ccc(-c2nc(SC(C)C(=O)NC3CC3)n[nH]2)cc1 (stereo unspecified)	inconclusive: -2.2%
CC(=O)c1cc(F)ccc1OCC(=O)Nc1ccc2c(c1)OCO2	inactive: 0%
CC(C)CC(=O)N1CCN(Cc2ccccc2Cl)CC1	inactive: -2.5%
CS(=O)(=O)N(CC(=O)NCCSCc1ccccc1)c1ccccc1F	inactive: -0.9%
COc1ccc(OC)c(N/C(=N/c2nc(C)cc(C)n2)NC(C)=O)c1	inconclusive: 1.4%
Cc1cccc(-c2ocnc2C(=O)N2CCN(C(=O)c3cccs3)CC2)c1	inactive: -0.3%
O=C1N[C@@H](Cc2ccccc2)C(=O)N1CCN1CCOCC1	inconclusive: 3.7%
CCOc1ccc(OCC)c(NC(=O)CCn2c(=O)oc3ccccc32)c1	inconclusive: 2.7%
C=CCn1c(O)c(C(CC)=Nc2cccc(C(F)(F)F)c2)c(=O)[nH]c1=O	inconclusive: -22.8%
CCn1c(SCC(=O)c2ccc3ccccc3c2)nnc1-c1cccs1	inconclusive: 23.2%
CC1CCC2(CC1)NC(=O)N(CC(=O)N1CCOCC1)C2=O (stereo unspecified)	inactive: -0.3%
N#Cc1nc(-c2ccc(F)cc2)oc1NCc1ccco1	inconclusive: 16.2%
COc1cccc(C2=CC(c3ccccc3)n3nnnc3N2)c1 (stereo unspecified)	inactive: 0.5%

SMILES	inhibition
COc1cccc(C2=NCCc3cc4c(cc32)OCO4)c1OC	inactive: 0.4%
Cc1ccc(S(=O)(=O)N2CCC(C(=O)NCCN3CCCCCC3)CC2)cc1	inconclusive: -2.1%
CC(C)(C)OC(=O)N1CC2(CCCCC2)CC1Cc1ccc(C(F)(F)F)cc1 (stereo unspecified)	inactive: -0.3%
O=C(OCC(=O)N1CCc2ccccc2C1)c1cccnc1Cl	inactive: -0.1%
Cc1ccc2[nH]c3c(NCc4ccco4)ncnc3c2c1	inactive: 0.4%
CO/N=C/c1cc([N+](=O)[O-])ccc1Sc1ccc(C)cc1	inconclusive: 2.4%
COCCNC(=S)N(C)[C@H]1C[C@H]2c3cc(N4CCN(C)CC4)ccc3CCN2C(=O)[C@H]1[C@H](C)O	inactive: -0.2%
COC(=O)[C@H](CCSC)NC(=O)NCc1cccs1	inactive: -0.3%
COc1ccccc1COC(=O)Nc1c(C)nn(C)c1Cl	inconclusive: 3.6%
Cc1cc(-c2nc(C)c(-c3nnc(SCC(=O)Nc4cc(Cl)cc(Cl)c4)n3C)s2)no1	inconclusive: 14.2%
Cn1ccc2c(-c3ccc(F)cc3F)cc3c(c21)C1CCC3C1 (stereo unspecified)	inactive: 15.6%
CC(C)c1ccc(C2c3[nH]c4ccccc4c3C[C@H]3C(=O)N(c4ccccc4C(=O)N4CCC[C@H]4C(=O)O)C(=O)N23)cc1 (stereo partly specified)	inactive: -0.5%
CC1CCCCN1C(=O)CSc1nc2cc3c(cc2c(=O)n1Cc1ccc2c(c1)OCO2)OCO3 (stereo unspecified)	inconclusive: 0.7%
COC(=O)[C@@]12CCCN1[C@H](c1ccc(-c3cccc(Cl)c3)cc1)[C@H]1C(=O)N(C)C(=O)[C@H]12	inactive: -0.1%
Cc1cc(/C=C2/SC(=S)N(c3cccc(C(F)(F)F)c3)C2=O)c(C)n1-c1cccnc1	active: 53.4%
Nc1c(C(=O)Nc2nc3ccccc3s2)sc2nc(-c3cccs3)ccc12	active: 50.3%
CN1CCN(c2ccc(CNS(=O)(=O)c3ccccc3)cc2)CC1	inconclusive: -7.1%
COc1ccc(CNC2CCCCC2)cc1	inconclusive: -0.2%
Cc1cc(C(C)(C)C)cc(C)c1COC(=O)C1CCC(=O)N1 (stereo unspecified)	inactive: -0.9%

12 structures from above, sorted by molecular weight, rising.
SMILES	inhibition
COc1ccc(CNC2CCCCC2)cc1	inconclusive: -0.2%
CO/N=C/c1cc([N+](=O)[O-])ccc1Sc1ccc(C)cc1	inconclusive: 2.4%
Cn1ccc2c(-c3ccc(F)cc3F)cc3c(c21)C1CCC3C1 (stereo unspecified)	inactive: 15.6%
COc1ccccc1COC(=O)Nc1c(C)nn(C)c1Cl	inconclusive: 3.6%
COc1cccc(C2=NCCc3cc4c(cc32)OCO4)c1OC	inactive: 0.4%
COc1ccc(-c2nc(SC(C)C(=O)NC3CC3)n[nH]2)cc1 (stereo unspecified)	inconclusive: -2.2%
CC(=O)c1cc(F)ccc1OCC(=O)Nc1ccc2c(c1)OCO2	inactive: 0%
COc1ccc(OC)c(N/C(=N/c2nc(C)cc(C)n2)NC(C)=O)c1	inconclusive: 1.4%
CCOc1ccc(OCC)c(NC(=O)CCn2c(=O)oc3ccccc32)c1	inconclusive: 2.7%
Cc1cccc(-c2ocnc2C(=O)N2CCN(C(=O)c3cccs3)CC2)c1	inactive: -0.3%
CC(C)(C)OC(=O)N1CC2(CCCCC2)CC1Cc1ccc(C(F)(F)F)cc1 (stereo unspecified)	inactive: -0.3%
Cc1cc(/C=C2/SC(=S)N(c3cccc(C(F)(F)F)c3)C2=O)c(C)n1-c1cccnc1	active: 53.4%

Further results follow.

SMILES	inhibition
O=C(Oc1c(-c2ccccc2)c(=O)n2c3c(cccc13)CC2)c1ccc(Cl)cc1	inconclusive: 6.4%
Cc1cc(N2C(=O)C(=O)/C(=C(/O)c3ccc(F)cc3)C2c2ccc(Cl)cc2)no1 (stereo unspecified)	inactive: -1%
CCOc1cc(S(=O)(=O)NCc2ccc(OC)cc2)c(OCC)cc1-n1cnnn1	inconclusive: 0.5%
COC(=O)C1=C(N)OC2=C(C(=O)CCC2)C1c1ccccc1OC (stereo unspecified)	inconclusive: -40.4%
Cc1c(NC(=O)CSc2nncc3ccccc23)c(=O)n(-c2ccccc2)n1C	inconclusive: 1.2%
CC(=O)c1c(N2CCN(Cc3ccccc3)CC2)nc(=S)n(Cc2ccccc2)c1C	active: 41.9%
Cc1cc(S(=O)(=O)NCC(c2ccc3c(c2)OCO3)N2CCOCC2)ccc1F (stereo unspecified)	inconclusive: 22.9%
Cc1ccc(Cn2c(SCC(=O)NCc3ccco3)nc3ccsc3c2=O)cc1	inactive: -0.9%
Cc1nn2c(N3CCN(C4CCCC4)CC3)cc(C(C)(C)C)nc2c1-c1ccccc1	inconclusive: -1.8%
O=Cc1c(NC2CCCCC2)c2ccccc2[nH]c1=O	inactive: -1.5%
CC1CCCCN1C(=O)C12CCC(C)(/C(=N/O)C1)C2(C)C (stereo unspecified)	inconclusive: 17.3%
CCCSc1nc2sc3c(c2c(=O)n1-c1ccc(OC)cc1)CCN(C)C3	active: 49.9%
CCOc1ccc(/C=N/OCC(=O)NCc2ccc3c(c2)OCO3)cc1OC	inactive: -0.2%
COCCN(C(=O)COC(=O)c1ccc(C)o1)c1c(N)n(Cc2ccccc2)c(=O)[nH]c1=O	inconclusive: -0.1%
COc1ccc(/C=N/NC(=O)c2cccnc2)cc1CSc1ccccn1	inconclusive: 17.2%
C=CCn1c(CCNC(=O)c2ccc(Cl)c(Cl)c2)nnc1SCCOc1ccc(OC)cc1	inconclusive: -2.3%
COc1ccc(N=C2S/C(=C\c3ccc(OCC(=O)O)cc3)C(=O)N2CCc2c[nH]c3ccccc23)cc1	inactive: -0.5%
CC(=O)c1cccc(NC(=O)/C=C/c2ccc([N+](=O)[O-])s2)c1	inactive: -0.8%
